Assay: general procedure: Fmoc solid-phase peptide synthesis; chlorotrityl resin; D-Series SynPhase Lanterns
Conditions: whole synthesis
With “(Boc-N-Methyl)-butyl-AF-glutamic acid-lysine-propionyl maleimide” the isolated yield was 29%. In the case of (Boc-N-methyl)-pentyl-AF, the isolated yield is reported as 25%. In the case of (Boc-N-methyl)-propyl-AF, the isolated yield is reported as 55%. With Bis(ethyl)-AF the isolated yield was 57%. Bis(propyl)-AF showed an isolated yield of 41%. Substance Boc-(N-methyl-ethyl)-AF has an isolated yield of 32%.

Same assay, conditions: whole synthesis, from 0.024 mmol resin, scale 0.024 mmol
Substance “(Boc-N-methyl)propyl-AF-glutamic acid-lysine-propionyl maleimide” has an isolated yield of 4%.
